{"sequences": {"note": "Protein sequences, listed by entry. Tags and fused reporters are not part of them. Lines headed by an entry give the natural chain unless they say otherwise; changes in a name come on top.", "UniProt P61960": "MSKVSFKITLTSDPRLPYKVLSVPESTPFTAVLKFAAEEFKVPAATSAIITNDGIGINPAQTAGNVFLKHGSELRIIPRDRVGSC", "UniProt P52732": "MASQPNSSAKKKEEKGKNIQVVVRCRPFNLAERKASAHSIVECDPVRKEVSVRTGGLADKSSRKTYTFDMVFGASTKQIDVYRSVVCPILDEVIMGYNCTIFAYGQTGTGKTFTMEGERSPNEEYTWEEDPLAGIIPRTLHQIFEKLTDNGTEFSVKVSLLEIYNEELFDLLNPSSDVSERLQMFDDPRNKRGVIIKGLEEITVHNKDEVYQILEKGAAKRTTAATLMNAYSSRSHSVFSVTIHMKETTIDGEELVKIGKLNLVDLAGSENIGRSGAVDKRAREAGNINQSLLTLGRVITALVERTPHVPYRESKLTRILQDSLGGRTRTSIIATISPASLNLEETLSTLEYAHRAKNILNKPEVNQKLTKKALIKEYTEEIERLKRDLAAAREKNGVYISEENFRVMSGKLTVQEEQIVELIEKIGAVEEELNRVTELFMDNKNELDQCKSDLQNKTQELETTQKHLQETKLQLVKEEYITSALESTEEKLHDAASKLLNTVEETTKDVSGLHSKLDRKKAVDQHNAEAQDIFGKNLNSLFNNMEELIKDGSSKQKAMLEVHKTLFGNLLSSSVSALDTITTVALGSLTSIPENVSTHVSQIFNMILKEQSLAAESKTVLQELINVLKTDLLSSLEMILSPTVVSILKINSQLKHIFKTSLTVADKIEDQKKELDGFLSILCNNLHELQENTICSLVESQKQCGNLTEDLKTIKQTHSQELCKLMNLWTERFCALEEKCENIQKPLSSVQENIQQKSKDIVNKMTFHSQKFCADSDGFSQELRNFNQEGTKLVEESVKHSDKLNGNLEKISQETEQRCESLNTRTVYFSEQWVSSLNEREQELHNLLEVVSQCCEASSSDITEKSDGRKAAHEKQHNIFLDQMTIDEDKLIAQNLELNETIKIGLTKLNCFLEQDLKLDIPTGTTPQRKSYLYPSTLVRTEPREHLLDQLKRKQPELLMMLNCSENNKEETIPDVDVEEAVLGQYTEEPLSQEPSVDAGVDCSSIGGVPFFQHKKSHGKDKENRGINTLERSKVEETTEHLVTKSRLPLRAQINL"}, "source": "paper PMC11291904", "target": "Flag-tagged mature UFM1 (UFM1-ΔC2) (UniProt P61960)", "assay": "affinity purification with mass spectrometry; Flag-UFM1-ΔC2 expressed for 36 h in UFSP2 knockout HEK293T cells; NP-40 lysis buffer (50 mM Tris pH 7.4, 150 mM NaCl, 1% NP-40); anti-FLAG M2 beads overnight at 4 °C; SDS-PAGE and mass spectrometry; Flag-UFM1-ΔC3 as negative control", "note": "These are yes or no findings as the source states them, for the method shown. Binding seen in cells or lysates may run through a third protein. A yes stands for co-enrichment or nearness to the bait. Other partners may have been found."}
{"substance": "Kinesin-5 (Eg5), endogenous (from UniProt P52732 1-1056)", "values": [{"measurement": "binding", "result": "binds"}]}
